Assay results: PMC5762833

By UniProt entry, the sequences of proteins in these tests, tags left out. Where a name states a change or a piece, a line headed by the entry shows the natural chain unless it says otherwise.
UniProt P24557: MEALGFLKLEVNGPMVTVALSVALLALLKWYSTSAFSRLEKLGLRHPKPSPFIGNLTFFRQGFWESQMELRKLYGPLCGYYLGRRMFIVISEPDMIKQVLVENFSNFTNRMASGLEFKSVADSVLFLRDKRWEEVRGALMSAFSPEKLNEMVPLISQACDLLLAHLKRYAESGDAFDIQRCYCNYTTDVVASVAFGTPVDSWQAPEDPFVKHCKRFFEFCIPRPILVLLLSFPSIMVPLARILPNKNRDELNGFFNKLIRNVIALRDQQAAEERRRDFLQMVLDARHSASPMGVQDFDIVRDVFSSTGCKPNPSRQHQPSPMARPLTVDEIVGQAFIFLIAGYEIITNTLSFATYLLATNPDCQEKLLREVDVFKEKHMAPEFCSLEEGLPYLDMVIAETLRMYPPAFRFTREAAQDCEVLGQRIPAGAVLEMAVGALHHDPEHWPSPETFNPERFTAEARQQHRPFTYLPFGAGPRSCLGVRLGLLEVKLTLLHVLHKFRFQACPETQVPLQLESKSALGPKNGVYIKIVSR
UniProt Q13485: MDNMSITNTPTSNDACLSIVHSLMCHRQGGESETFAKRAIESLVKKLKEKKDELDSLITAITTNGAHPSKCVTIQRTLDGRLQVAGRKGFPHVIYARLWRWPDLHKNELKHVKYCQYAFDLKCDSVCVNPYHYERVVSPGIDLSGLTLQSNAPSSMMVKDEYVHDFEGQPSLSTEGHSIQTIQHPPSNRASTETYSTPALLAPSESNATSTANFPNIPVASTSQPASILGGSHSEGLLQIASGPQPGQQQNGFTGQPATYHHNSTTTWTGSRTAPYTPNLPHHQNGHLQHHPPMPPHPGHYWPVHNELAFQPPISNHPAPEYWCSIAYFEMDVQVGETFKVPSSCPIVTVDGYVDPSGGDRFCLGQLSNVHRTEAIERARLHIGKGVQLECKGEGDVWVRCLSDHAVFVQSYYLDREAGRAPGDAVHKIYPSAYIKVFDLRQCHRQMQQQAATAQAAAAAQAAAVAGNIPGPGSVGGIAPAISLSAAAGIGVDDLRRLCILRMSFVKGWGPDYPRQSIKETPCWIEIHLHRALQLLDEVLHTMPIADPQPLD
UniProt P33261: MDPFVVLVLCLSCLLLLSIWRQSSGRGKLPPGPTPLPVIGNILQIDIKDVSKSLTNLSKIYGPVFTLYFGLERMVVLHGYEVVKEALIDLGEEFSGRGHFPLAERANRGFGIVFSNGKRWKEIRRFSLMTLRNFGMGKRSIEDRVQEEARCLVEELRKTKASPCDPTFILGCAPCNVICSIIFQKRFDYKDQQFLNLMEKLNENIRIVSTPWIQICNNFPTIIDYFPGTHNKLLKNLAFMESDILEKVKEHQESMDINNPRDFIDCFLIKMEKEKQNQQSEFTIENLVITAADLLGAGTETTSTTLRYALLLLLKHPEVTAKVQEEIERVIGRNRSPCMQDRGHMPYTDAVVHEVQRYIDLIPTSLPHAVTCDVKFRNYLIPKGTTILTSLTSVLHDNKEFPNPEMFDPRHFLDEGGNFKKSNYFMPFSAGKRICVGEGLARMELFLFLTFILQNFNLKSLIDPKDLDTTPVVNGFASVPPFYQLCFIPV
UniProt P08684: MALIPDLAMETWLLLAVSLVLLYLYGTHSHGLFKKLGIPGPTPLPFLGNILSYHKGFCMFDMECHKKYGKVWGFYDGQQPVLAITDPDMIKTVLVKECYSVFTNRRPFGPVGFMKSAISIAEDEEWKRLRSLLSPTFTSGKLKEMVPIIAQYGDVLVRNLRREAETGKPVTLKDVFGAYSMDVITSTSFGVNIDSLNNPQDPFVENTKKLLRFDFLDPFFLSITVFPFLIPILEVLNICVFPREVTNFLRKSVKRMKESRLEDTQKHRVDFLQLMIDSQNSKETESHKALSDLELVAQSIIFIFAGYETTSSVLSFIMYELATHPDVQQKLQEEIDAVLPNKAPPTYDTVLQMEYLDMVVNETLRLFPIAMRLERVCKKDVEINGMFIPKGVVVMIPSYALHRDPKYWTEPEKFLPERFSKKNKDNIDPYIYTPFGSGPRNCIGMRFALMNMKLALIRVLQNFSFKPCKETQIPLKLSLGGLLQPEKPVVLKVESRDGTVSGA
UniProt P16435: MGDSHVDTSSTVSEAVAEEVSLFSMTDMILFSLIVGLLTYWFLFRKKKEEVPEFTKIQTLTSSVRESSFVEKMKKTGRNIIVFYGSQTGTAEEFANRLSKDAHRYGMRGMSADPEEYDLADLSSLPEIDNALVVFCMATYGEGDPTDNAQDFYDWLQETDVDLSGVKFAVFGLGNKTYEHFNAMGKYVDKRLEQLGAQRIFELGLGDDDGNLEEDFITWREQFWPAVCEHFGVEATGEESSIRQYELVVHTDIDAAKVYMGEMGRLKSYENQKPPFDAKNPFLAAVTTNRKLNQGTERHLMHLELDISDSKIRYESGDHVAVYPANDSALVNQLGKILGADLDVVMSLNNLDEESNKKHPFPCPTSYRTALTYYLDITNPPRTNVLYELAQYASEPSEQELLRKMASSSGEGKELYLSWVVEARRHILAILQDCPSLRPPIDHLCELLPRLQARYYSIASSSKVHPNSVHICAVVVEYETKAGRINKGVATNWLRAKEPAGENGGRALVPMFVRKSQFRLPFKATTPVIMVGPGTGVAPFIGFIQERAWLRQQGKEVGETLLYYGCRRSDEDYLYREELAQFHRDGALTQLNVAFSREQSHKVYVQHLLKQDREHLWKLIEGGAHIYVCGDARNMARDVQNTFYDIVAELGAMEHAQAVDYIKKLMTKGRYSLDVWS
UniProt P20815: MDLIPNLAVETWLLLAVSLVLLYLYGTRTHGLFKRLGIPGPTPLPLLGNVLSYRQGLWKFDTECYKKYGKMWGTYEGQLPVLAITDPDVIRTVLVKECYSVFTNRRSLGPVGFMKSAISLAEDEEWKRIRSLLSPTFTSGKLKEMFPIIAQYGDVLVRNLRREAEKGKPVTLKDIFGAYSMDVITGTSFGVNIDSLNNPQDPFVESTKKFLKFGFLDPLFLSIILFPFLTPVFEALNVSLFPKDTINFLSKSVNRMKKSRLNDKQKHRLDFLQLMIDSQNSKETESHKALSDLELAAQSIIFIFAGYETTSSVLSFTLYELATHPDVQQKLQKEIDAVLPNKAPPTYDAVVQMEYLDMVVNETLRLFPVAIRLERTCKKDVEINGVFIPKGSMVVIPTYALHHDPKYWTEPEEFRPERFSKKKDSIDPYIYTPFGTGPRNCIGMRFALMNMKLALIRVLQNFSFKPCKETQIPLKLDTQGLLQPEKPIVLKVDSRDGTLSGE
UniProt P00167: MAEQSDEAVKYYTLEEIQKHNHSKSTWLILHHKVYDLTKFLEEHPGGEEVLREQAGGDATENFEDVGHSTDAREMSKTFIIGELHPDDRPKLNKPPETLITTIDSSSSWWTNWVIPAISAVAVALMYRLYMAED

Target: Human thromboxane synthase (TBXAS1) (human) (UniProt P24557)
Assay: condition: micromolar concentrations (50 nM to 5 μM injected); SPR; Biacore 3000; TBXAS1 amine-coupled to a CM5 chip (about 7,500 RU); analytes 50 nM to 5 μM injected for 10 min at 5 μL/min; control channel without protein; both purified

Substance | binding
SMAD4 (from UniProt Q13485 1-552) | no binding
limonene 6-monooxygenase (CYP2C19) (from UniProt P33261 1-490) (enzyme) | no binding
taurochenodeoxycholate-6α-monooxygenase (CYP3A4) (from UniProt P08684) (enzyme) | no binding

Further lines, results first:

binding | Substance
no binding | NADPH-cytochrome-P450-reductase (CPR) (from UniProt P16435) (enzyme)
no binding | cyclic hydrocarbon hydroxylase (CYP3A5) (from UniProt P20815 1-502) (enzyme)
no binding | microsomal cytochrome b5 (CYB5A) (from UniProt P00167 1-134)

No constants are given. Whether binding was seen depends on the method and setting.
